Measurements: paper PMC9794587 (Frontiers in Pharmacology, 2022)

Test: peptide synthesis
Settings: whole synthesis

## PEPTIDE1{G.E.P.P.P.G.K.P.A.D.D.A.G.L.V}$$$$V2.0
  final purity (method not given): 99%

Strings that start with PEPTIDE1 are HELM notation: dots part the residues, brackets hold end groups and non-standard residues.
